{"sequences": {"note": "Amino acid sequences for entries named in this document (tags omitted). A change or cut given only in a name is not applied to a line headed by its entry.", "UniProt P48730": "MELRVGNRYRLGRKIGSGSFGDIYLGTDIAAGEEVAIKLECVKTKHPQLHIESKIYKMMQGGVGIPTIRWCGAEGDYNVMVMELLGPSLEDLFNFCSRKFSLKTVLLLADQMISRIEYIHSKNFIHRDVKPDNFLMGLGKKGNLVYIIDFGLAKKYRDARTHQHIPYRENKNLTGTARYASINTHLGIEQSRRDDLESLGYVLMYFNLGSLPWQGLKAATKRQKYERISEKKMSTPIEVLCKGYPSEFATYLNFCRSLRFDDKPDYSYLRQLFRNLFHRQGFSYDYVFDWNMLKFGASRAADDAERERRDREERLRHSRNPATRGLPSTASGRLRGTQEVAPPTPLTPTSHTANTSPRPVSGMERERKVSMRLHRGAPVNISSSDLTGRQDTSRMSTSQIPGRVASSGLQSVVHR", "UniProt O95786": "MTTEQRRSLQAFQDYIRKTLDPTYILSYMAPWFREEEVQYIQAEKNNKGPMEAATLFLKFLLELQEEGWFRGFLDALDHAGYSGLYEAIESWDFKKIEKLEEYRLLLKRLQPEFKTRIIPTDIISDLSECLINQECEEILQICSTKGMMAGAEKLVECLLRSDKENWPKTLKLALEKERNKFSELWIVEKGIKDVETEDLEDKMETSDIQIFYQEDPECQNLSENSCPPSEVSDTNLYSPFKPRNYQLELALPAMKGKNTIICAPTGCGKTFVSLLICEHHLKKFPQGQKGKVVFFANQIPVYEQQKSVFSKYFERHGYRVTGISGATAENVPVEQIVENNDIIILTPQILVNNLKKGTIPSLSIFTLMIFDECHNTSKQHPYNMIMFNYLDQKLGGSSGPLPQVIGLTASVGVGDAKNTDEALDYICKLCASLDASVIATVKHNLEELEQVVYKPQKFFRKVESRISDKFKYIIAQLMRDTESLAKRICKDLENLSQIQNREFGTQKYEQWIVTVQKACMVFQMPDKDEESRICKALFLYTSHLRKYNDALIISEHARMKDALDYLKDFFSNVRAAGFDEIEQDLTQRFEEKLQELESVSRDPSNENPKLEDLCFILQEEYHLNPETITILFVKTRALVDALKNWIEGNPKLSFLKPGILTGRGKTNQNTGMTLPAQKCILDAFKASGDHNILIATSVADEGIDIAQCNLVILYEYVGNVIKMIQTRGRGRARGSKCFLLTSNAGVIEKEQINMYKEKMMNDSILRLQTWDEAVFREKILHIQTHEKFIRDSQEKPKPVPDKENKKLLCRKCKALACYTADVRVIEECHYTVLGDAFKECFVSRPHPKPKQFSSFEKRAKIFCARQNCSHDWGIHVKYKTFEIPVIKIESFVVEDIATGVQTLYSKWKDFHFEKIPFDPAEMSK", "UniProt Q96HD1": "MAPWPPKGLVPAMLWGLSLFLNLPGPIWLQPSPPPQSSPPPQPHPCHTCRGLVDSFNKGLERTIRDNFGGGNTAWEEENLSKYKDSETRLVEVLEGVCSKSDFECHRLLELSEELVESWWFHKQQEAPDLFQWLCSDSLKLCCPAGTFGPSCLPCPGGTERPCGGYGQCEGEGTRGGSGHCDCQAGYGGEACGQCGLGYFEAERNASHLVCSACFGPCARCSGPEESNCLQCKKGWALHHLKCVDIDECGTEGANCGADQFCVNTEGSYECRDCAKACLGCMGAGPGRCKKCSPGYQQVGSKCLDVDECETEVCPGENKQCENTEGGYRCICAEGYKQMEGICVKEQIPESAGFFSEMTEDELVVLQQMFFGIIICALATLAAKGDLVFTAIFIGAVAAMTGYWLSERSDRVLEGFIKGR", "UniProt O75208": "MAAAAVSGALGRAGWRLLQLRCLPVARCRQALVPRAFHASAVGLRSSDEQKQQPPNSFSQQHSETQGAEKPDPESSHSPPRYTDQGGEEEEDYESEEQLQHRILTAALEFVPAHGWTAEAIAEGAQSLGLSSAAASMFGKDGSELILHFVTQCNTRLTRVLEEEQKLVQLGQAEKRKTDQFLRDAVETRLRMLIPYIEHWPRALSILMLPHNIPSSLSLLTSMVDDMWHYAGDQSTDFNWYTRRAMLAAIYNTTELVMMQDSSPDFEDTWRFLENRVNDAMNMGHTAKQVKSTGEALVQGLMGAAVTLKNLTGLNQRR", "UniProt Q99627": "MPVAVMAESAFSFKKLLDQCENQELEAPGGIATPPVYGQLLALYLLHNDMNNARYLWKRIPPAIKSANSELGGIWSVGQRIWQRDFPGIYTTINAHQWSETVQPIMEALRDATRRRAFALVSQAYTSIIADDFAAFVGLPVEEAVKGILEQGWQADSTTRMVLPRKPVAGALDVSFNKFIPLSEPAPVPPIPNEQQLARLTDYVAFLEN", "UniProt Q6PI48": "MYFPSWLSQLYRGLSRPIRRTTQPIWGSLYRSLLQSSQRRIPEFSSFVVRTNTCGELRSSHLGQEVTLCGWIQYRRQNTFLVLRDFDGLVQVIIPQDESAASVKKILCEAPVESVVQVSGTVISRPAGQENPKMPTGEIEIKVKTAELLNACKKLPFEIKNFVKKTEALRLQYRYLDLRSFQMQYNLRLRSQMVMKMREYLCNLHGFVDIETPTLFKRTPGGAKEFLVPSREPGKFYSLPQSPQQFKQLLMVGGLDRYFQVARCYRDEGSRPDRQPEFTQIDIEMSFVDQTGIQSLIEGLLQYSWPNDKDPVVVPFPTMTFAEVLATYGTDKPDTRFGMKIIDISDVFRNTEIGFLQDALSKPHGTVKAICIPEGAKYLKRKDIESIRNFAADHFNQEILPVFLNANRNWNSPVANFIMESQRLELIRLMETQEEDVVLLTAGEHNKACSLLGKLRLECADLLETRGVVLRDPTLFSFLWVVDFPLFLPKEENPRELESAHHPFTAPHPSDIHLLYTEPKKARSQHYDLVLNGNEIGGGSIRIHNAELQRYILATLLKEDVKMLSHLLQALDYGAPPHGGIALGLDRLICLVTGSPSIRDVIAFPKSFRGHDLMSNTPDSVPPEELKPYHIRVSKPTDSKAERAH", "UniProt Q69YQ0": "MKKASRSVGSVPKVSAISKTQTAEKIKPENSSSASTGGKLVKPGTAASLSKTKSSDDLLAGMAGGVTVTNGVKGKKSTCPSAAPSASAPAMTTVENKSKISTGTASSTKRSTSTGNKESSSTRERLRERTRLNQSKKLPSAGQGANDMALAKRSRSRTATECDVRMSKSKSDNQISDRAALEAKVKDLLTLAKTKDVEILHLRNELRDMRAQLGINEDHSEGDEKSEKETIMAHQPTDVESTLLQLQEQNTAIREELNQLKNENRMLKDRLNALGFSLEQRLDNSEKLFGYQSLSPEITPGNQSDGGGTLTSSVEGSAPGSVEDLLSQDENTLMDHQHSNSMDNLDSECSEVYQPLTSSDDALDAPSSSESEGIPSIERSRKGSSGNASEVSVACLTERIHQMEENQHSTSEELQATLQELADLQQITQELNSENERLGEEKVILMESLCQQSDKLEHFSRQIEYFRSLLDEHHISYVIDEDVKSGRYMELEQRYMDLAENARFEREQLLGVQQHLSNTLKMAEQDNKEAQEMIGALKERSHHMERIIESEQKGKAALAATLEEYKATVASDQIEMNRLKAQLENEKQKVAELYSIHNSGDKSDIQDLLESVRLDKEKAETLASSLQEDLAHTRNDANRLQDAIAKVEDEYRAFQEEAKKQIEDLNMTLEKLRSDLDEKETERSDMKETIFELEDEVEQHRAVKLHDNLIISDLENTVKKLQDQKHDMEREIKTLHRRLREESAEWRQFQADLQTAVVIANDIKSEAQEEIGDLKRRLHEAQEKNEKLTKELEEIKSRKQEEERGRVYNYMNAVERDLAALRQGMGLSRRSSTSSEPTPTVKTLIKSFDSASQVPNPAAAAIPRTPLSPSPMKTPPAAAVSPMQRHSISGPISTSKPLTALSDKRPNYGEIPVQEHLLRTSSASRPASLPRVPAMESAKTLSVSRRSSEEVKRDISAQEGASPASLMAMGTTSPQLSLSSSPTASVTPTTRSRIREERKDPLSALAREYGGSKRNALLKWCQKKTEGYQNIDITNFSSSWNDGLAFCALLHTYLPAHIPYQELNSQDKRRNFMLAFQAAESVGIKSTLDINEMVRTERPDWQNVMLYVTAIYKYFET", "UniProt Q6IAN0": "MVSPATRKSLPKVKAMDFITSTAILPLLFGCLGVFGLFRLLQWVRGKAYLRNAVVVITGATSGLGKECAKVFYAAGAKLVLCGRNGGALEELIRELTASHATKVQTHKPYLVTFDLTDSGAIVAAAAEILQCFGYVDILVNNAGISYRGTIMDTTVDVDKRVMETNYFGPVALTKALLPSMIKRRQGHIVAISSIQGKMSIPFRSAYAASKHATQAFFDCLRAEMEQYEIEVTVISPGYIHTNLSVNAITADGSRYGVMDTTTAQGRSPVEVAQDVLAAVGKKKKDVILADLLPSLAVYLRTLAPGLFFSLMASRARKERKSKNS", "UniProt P99999": "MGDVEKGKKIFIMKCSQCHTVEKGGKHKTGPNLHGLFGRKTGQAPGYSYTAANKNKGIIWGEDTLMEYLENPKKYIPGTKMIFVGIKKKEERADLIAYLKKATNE"}, "source": "the supplement of paper PMC7666118", "note": "Some of the results follow."}
{"compound": "COc1ccc(Cn2ccc3ccc(C(=O)NO)cc32)cc1", "experiment": "dose-dependent thermal stabilisation call (2D-TPP, DLPTP, 10% FDR) (binary (1 = stabilised)); higher = stabilised by the compound", "conditions": "system: HL-60 intact cells; concentration range 0.04-10 µM"}
{"target": "CSNK1D (UniProt P48730)", "dose-dependent thermal stabilisation call": "inactive: 0"}
{"target": "DDX58 (UniProt O95786)", "dose-dependent thermal stabilisation call": "inactive: 0"}
{"target": "CRELD1 (UniProt Q96HD1)", "dose-dependent thermal stabilisation call": "inactive: 0"}
{"target": "COQ9 (UniProt O75208)", "dose-dependent thermal stabilisation call": "inactive: 0"}
{"target": "COPS8 (UniProt Q99627)", "dose-dependent thermal stabilisation call": "inactive: 0"}
{"target": "DARS2 (UniProt Q6PI48)", "dose-dependent thermal stabilisation call": "active: 1"}
{"target": "CYTSA (UniProt Q69YQ0)", "dose-dependent thermal stabilisation call": "inactive: 0"}
{"target": "DHRS7B (UniProt Q6IAN0)", "dose-dependent thermal stabilisation call": "inactive: 0"}
{"target": "CYCS (UniProt P99999)", "dose-dependent thermal stabilisation call": "inactive: 0"}
